Results are given in words; binding and its absence hold for the method and conditions named. Binding seen in cells or lysates may run through a third protein. Binding calls can cover weak binding; strength is not graded here. Blank lines part the entries; values can stand above or below the molecule they belong to.
Tests used:
[1] = molecular target: T1, membrane-associated ring-CH-type finger 8 (UniProt Q9DBD2); assay: co-IP; cell lysate incubated with GPX4 or MARCHF8 antibody or control IgG at 4 C for 3 h, protein A/G magnetic beads overnight, Western blot; control and QG-treated cells
T1 sequence: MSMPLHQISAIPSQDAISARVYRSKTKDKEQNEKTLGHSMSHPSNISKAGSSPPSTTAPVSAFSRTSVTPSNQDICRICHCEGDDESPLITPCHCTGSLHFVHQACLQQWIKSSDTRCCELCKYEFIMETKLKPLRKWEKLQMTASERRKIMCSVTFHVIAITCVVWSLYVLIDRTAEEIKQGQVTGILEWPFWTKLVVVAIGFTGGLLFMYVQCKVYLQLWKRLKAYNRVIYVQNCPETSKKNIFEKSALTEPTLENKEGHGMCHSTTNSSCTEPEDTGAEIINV

glutathione peroxidase 4 = assay: as above

- binding [1]: binds
Molecule: glutathione peroxidase 4

- binding (glutathione peroxidase 4): binds
B1: membrane-associated ring-CH-type finger 8 (protein, UniProt Q9DBD2 1-286)
chain: T1 sequence
